In PubChem BioAssay AID540276 (National Center for Advancing Translational Sciences (NCATS), 2011):
The whole screen tested about 300,000 compounds, of which about 5,400 (1.8%) were called active. The inconclusive results got no clear call from the source; some entries with a clear call stand among them for comparison. The call rests on the fitted dose curve; tested in HEK293 cells. A potency beside an inconclusive call is a rough fit, not a confirmed value.

experiment: qHTS for inhibitors of binding or entry into cells for Marburg Virus; conditions: Marburg virus pseudotyped entry inhibition, cell reporter; series mostly up to 37.8 µM
Potency means the concentration at half of the fitted maximal effect.

**Q.** With `CN(C)Cc1cccc(-c2ccccc2)c1O` as the molecule, how does the Potency read?
**A.** Its Potency is inconclusive: 12.6 µM [activator, single point].

**Q.** For `O=C(N/N=C/c1ccccc1[N+](=O)[O-])c1ccc2c(c1)OCCO2`, which Potency is on record?
**A.** The Potency was active: 2.51 µM.

**Q.** For `COc1cccc(-c2nc(SCC(=O)Nc3nc(-c4ccccc4)c(C)s3)[nH]c(=O)c2C#N)c1`, which Potency is on record?
**A.** The Potency was inconclusive: 1.26 µM [activator, partial curve, poor fit].

**Q.** Which Potency does the source give for `CCOc1ccc2nc(NC(=O)c3cccnc3)sc2c1` here?
**A.** Its Potency is inconclusive: 1 µM [activator, partial curve, poor fit].

**Q.** With `COc1cccc(NC(=O)N(Cc2c[nH]c3ccccc23)C2CCCCCC2)c1` as the molecule, how does the Potency read?
**A.** Its Potency is “inactive”.

**Q.** For `O=[N+]([O-])c1ccc(N2CCN(c3ccc([N+](=O)[O-])cc3CO)CC2)c(CO)c1`, which Potency is on record?
**A.** Its Potency is “inactive”.

**Q.** Which Potency does the source give for `O=C(Nc1cccc(-c2nc3cccnc3s2)c1)c1ccco1` here?
**A.** Its Potency is “inactive”.

**Q.** With `Cc1ccc(C2=NN(C(=O)CSc3nccn3C)C(c3ccco3)C2)cc1` (stereo not drawn) as the molecule, how does the Potency read?
**A.** The Potency was inconclusive: 6.31 µM [inhibitor, single point].

**Q.** For `O=c1cc(-c2ccco2)nc(-c2cccs2)o1`, which Potency is on record?
**A.** Its Potency is “inactive”.

**Q.** With `COCC(=O)N(C)CC1CCCN(CCc2ccccc2OC)C1` (stereo not drawn) as the molecule, how does the Potency read?
**A.** The Potency was inconclusive: 1.26 µM [inhibitor, single point].

**Q.** Which Potency does the source give for `Cc1ccccc1NC(=O)c1cnn(-c2ccccc2)c1C` here?
**A.** The Potency was inconclusive: 1.78 µM [activator, partial curve, poor fit].

**Q.** For `CCOC(=O)CSC(=S)NC(=O)c1ccc(OC)cc1`, which Potency is on record?
**A.** Its Potency is “inactive”.

**Q.** With `COc1ccccc1NC(=O)c1c(C)cc(C)nc1SCC(=O)Nc1ccc(C)c(C)c1` as the molecule, how does the Potency read?
**A.** The Potency was active: 7.94 µM.

**Q.** With `COc1cc(C2c3c(oc4ccccc4c3=O)C(=O)N2c2ccc(C)cn2)ccc1O` (stereo not drawn) as the molecule, how does the Potency read?
**A.** Its Potency is “inactive”.

**Q.** Which Potency does the source give for `COc1nnc(-c2ccc(N3CCOCC3)c(NC(=O)C3CCCCC3)c2)c2ccccc12` here?
**A.** Its Potency is “inactive”.

**Q.** Which Potency does the source give for `COc1ccccc1Nc1nc(-c2ccc(F)cc2)c2c(n1)-c1ccccc1OC2` here?
**A.** Its Potency is inconclusive: 35.5 µM [inhibitor, single point].

**Q.** With `COc1ccccc1CNC(=O)CCCn1c(=O)c2ccccc2n(Cc2ccc(F)cc2)c1=O` as the molecule, how does the Potency read?
**A.** The Potency was “inactive”.

**Q.** For `Cc1ccc(CCNC(=O)CN(c2cc(C)cc(C)c2)S(=O)(=O)c2c(C)noc2C)cc1`, which Potency is on record?
**A.** Its Potency is inconclusive: 1.41 µM [inhibitor, partial curve, poor fit].

**Q.** Which Potency does the source give for `CCOC(=O)c1c(NC(=O)CCC(=O)NCc2ccco2)sc2c1CCCC2` here?
**A.** The Potency was inconclusive: 5.8 µM [inhibitor, full curve, poor fit].

**Q.** Which Potency does the source give for `CCOC(=O)C1CCCN(C(=O)COc2ccc(S(=O)(=O)N3CCOCC3)cc2)C1` (stereo not drawn) here?
**A.** The Potency was inconclusive: 0.178 µM [activator, full curve, poor fit].

**Q.** For `N#Cc1cc2c(nc1SC1CCCCC1O)CCCC2` (stereo not drawn), which Potency is on record?
**A.** The Potency was “inactive”.

**Q.** Which Potency does the source give for `Cc1ccccc1N1CCN(C2CCCN(C(=O)CCc3c(C)noc3C)C2)CC1` (stereo not drawn) here?
**A.** Its Potency is inconclusive: 11.2 µM [inhibitor, partial curve, poor fit].

**Q.** For `CCNCc1cc(Br)c(OCC(=O)Nc2ccccc2)c(OC)c1`, which Potency is on record?
**A.** The Potency was inconclusive: 16.4 µM [inhibitor, partial curve, poor fit].

**Q.** With `CCNC(=S)N/N=C/c1cccc(OCc2c(F)cccc2Cl)c1` as the molecule, how does the Potency read?
**A.** The Potency was inconclusive: 10 µM [inhibitor, partial curve, poor fit].

**Q.** For `O=S1(=O)c2cccc3cccc(c23)N1Cc1ccc(-c2nnco2)cc1`, which Potency is on record?
**A.** The Potency was inconclusive: 35.5 µM [inhibitor, single point].

**Q.** For `CCC(=C(c1ccc(OC)cc1)c1ccc(OC)cc1)c1cn(CC(O)CN2CCN(C)CC2)c2ccccc12` (stereo not drawn), which Potency is on record?
**A.** Its Potency is inconclusive: 14.1 µM [inhibitor, single point].

**Q.** Which Potency does the source give for `CC(=O)N/C(=N\c1nc(C)cc(C)n1)Nc1ccc2ccccc2c1` here?
**A.** Its Potency is “inactive”.

**Q.** For `CCc1ccnc(NS(=O)(=O)c2ccc3c(c2)OCCO3)c1`, which Potency is on record?
**A.** The Potency was inconclusive: 0.891 µM [inhibitor, full curve, poor fit].

**Q.** Which Potency does the source give for `CC(=O)Nc1nc(-c2ccc3c(c2)CCN3C(=O)C2CC2)c(C)s1` here?
**A.** The Potency was inconclusive: 11.2 µM [activator, partial curve, poor fit].

**Q.** Which Potency does the source give for `Cc1ccc(C(=O)N2CCc3ccccc32)cc1` here?
**A.** Its Potency is “inactive”.

**Q.** With `CSc1ccccc1NC(=O)Cn1nc([N+](=O)[O-])cc1C` as the molecule, how does the Potency read?
**A.** The Potency was inconclusive: 12.6 µM [activator, partial curve].

**Q.** With `CCN1CCC(NC(=O)Nc2cccc(C(F)(F)F)c2)CC1` as the molecule, how does the Potency read?
**A.** The Potency was inconclusive: 15.8 µM [inhibitor, single point].

**Q.** For `O=C1/C(=C/c2ccsc2)CC/C1=C\c1cccs1`, which Potency is on record?
**A.** Its Potency is inconclusive: 25.9 µM [activator, partial curve].

**Q.** Which Potency does the source give for `CC(=O)/C(N=Nc1ccc2c(c1)OCCO2)=C(\C)O` here?
**A.** The Potency was inconclusive: 29.1 µM [inhibitor, single point].

**Q.** For `CCN(CC)S(=O)(=O)c1ccc(NC(=O)CN(c2cccc(C)c2)S(C)(=O)=O)cc1`, which Potency is on record?
**A.** Its Potency is inconclusive: 20 µM [inhibitor, single point].

**Q.** With `N#C/C(=C(/O)COC(=O)COc1ccc(Cl)cc1)c1nc2ccccc2[nH]1` as the molecule, how does the Potency read?
**A.** The Potency was inconclusive: 11.2 µM [inhibitor, partial curve, poor fit].

**Q.** For `Cc1ccc(NC2CCCN(C(=O)CCc3cn[nH]c3)C2)cc1C` (stereo not drawn), which Potency is on record?
**A.** Its Potency is inconclusive: 35.5 µM [inhibitor, single point].

**Q.** Which Potency does the source give for `Nc1nc(COc2ccc(F)cc2Cl)nc(N2CCCCC2)n1` here?
**A.** The Potency was inconclusive: 35.5 µM [inhibitor, single point].

**Q.** Which Potency does the source give for `CC(C)=CCN1CCN(Cc2cnc(N3CCOCC3)s2)CC1CCO` (stereo not drawn) here?
**A.** Its Potency is inconclusive: 0.562 µM [activator, full curve, poor fit].

**Q.** For `Cc1ccc(NC(=O)C(=O)NCCCN2CCOCC2)c(C)c1`, which Potency is on record?
**A.** The Potency was inconclusive: 1.58 µM [activator, partial curve, poor fit].

**Q.** Which Potency does the source give for `Cc1cccc2sc(N(CCCN(C)C)C(=O)c3nc4ccccc4s3)nc12` here?
**A.** The Potency was inconclusive: 13 µM [inhibitor, single point].

**Q.** Which Potency does the source give for `N#Cc1nc(COc2ccccc2Cl)oc1NCCc1ccccc1` here?
**A.** The Potency was inconclusive: 6.31 µM [inhibitor, single point].

**Q.** With `CSCC[C@H](NC(=O)OC(C)(C)C)C(=O)N/N=C/c1cccc2cccnc12` as the molecule, how does the Potency read?
**A.** Its Potency is inconclusive: 3.55 µM [activator, single point].

**Q.** For `COc1ccc(C(=O)Nc2ccc(NC(=O)C3CC3)cn2)cc1`, which Potency is on record?
**A.** The Potency was “inactive”.

**Q.** With `CCOc1ccccc1NC(=O)CSc1nnnn1-c1ccc(C(=O)OC)cc1` as the molecule, how does the Potency read?
**A.** The Potency was “inactive”.

**Q.** With `CCCOc1ccc([N+](=O)[O-])cc1C1NC(=S)NC(c2ccccc2)=C1C(=O)OCC` (stereo not drawn) as the molecule, how does the Potency read?
**A.** Its Potency is inconclusive: 11.2 µM [inhibitor, partial curve].

**Q.** With `COc1ccc(Nc2nccc(-c3ccc(C#N)cc3)n2)cc1` as the molecule, how does the Potency read?
**A.** Its Potency is “inactive”.

**Q.** For `Cc1cc(NC(=O)c2ccc(Cl)cc2Cl)n(CCC#N)n1`, which Potency is on record?
**A.** Its Potency is inconclusive: 5.62 µM [activator, single point].

**Q.** For `Cc1ccc(Cl)cc1NC(=S)N(Cc1cccs1)C1CCCC1`, which Potency is on record?
**A.** The Potency was inconclusive: 15.8 µM [inhibitor, partial curve, poor fit].

**Q.** With `COC(=O)c1sccc1-n1cccc1C(=O)C(=O)N1CC(C)OC(C)C1` (stereo not drawn) as the molecule, how does the Potency read?
**A.** Its Potency is inconclusive: 6.31 µM [inhibitor, single point].

**Q.** Which Potency does the source give for `CCn1c(C)c(C(C)=O)c(SC)nc1=S` here?
**A.** Its Potency is inconclusive: 0.631 µM [activator, full curve, poor fit].

**Q.** For `CN1CCOCCOCCN(C)C1=O`, which Potency is on record?
**A.** The Potency was “inactive”.

**Q.** With `COc1c(C)cc(C(=O)C2CCCN(Cc3ccccn3)C2)cc1C` (stereo not drawn) as the molecule, how does the Potency read?
**A.** Its Potency is inconclusive: 20 µM [inhibitor, partial curve, poor fit].

**Q.** Which Potency does the source give for `Cc1ccc(C(=O)N=c2sccn2C)cc1S(=O)(=O)N1CCOCC1` here?
**A.** The Potency was “inactive”.

**Q.** Which Potency does the source give for `O=C(NCCCc1ccccc1)C(=O)NCC1OCCN1S(=O)(=O)c1cc(F)ccc1F` (stereo not drawn) here?
**A.** Its Potency is inconclusive: 0.891 µM [activator, full curve, poor fit].

**Q.** For `CCOC(=O)c1c(C)c(C(=O)NCC2CCCO2)c(C)n1CC` (stereo not drawn), which Potency is on record?
**A.** The Potency was inconclusive: 1.3 µM [inhibitor, single point].

**Q.** With `COc1cc(C)c(NC(=O)COc2ccc3c(c2)OCO3)cc1C` as the molecule, how does the Potency read?
**A.** The Potency was “inactive”.

**Q.** Which Potency does the source give for `COc1ccc(Br)c(C(=O)NCCC(C)C)c1` here?
**A.** The Potency was inconclusive: 31.6 µM [activator, single point].

**Q.** With `COc1ccc(OC)c(C2C(C(=O)Nc3nc4ccccc4s3)=C(C)NC3=C2C(=O)CCC3)c1` (stereo not drawn) as the molecule, how does the Potency read?
**A.** Its Potency is inconclusive: 25.1 µM [inhibitor, single point].

**Q.** With `COc1ccc(N(CC(=O)N2CCN(c3ccccc3)CC2)S(=O)(=O)c2c(C)nn(C)c2C)cc1` as the molecule, how does the Potency read?
**A.** The Potency was “inactive”.

**Q.** Which Potency does the source give for `Cc1ccc(Sc2cnn(-c3ccccc3)c(=O)c2Cl)cc1` here?
**A.** Its Potency is inconclusive: 22.4 µM [inhibitor, single point].

**Q.** Which Potency does the source give for `Cc1ccc(CNCC(O)(c2ccccc2)c2ccc(Cl)cc2)cc1` (stereo not drawn) here?
**A.** Its Potency is active: 10 µM.

**Q.** Which Potency does the source give for `CCOC(=O)C1C(=O)C=C(/C=C/c2ccccc2)CC1c1ccc(Cl)cc1` (stereo not drawn) here?
**A.** The Potency was inconclusive: 25.9 µM [inhibitor, partial curve, poor fit].

**Q.** For `COc1ccc(N2C(=O)CCC(C(=O)Nc3cccc(C)n3)C2c2ccc(OC)c(OC)c2)cc1` (stereo not drawn), which Potency is on record?
**A.** The Potency was inconclusive: 1 µM [inhibitor, full curve, poor fit].

**Q.** Which Potency does the source give for `CC1SC(=NC(=O)c2ccco2)NC1=O` (stereo not drawn) here?
**A.** Its Potency is inconclusive: 18.3 µM [activator, partial curve, poor fit].

**Q.** For `Cc1ccc([N+](=O)[O-])cc1NC(=O)c1ccoc1C`, which Potency is on record?
**A.** Its Potency is inconclusive: 3.16 µM [activator, partial curve, poor fit].

**Q.** With `COc1ccc(CN(C)CC(=O)c2c(N)n(Cc3ccccc3)c(=O)n(C)c2=O)c(OC)c1` as the molecule, how does the Potency read?
**A.** Its Potency is inconclusive: 11.6 µM [inhibitor, single point].

**Q.** Which Potency does the source give for `O=[N+]([O-])c1ccc(N2CCN(S(=O)(=O)c3ccccc3)CC2)cc1NCc1cccnc1` here?
**A.** Its Potency is inconclusive: 12.6 µM [inhibitor, single point].
